# In article PMC10814579:
# By UniProt entry, the sequences of proteins in these tests, tags left out.
# UniProt O70133: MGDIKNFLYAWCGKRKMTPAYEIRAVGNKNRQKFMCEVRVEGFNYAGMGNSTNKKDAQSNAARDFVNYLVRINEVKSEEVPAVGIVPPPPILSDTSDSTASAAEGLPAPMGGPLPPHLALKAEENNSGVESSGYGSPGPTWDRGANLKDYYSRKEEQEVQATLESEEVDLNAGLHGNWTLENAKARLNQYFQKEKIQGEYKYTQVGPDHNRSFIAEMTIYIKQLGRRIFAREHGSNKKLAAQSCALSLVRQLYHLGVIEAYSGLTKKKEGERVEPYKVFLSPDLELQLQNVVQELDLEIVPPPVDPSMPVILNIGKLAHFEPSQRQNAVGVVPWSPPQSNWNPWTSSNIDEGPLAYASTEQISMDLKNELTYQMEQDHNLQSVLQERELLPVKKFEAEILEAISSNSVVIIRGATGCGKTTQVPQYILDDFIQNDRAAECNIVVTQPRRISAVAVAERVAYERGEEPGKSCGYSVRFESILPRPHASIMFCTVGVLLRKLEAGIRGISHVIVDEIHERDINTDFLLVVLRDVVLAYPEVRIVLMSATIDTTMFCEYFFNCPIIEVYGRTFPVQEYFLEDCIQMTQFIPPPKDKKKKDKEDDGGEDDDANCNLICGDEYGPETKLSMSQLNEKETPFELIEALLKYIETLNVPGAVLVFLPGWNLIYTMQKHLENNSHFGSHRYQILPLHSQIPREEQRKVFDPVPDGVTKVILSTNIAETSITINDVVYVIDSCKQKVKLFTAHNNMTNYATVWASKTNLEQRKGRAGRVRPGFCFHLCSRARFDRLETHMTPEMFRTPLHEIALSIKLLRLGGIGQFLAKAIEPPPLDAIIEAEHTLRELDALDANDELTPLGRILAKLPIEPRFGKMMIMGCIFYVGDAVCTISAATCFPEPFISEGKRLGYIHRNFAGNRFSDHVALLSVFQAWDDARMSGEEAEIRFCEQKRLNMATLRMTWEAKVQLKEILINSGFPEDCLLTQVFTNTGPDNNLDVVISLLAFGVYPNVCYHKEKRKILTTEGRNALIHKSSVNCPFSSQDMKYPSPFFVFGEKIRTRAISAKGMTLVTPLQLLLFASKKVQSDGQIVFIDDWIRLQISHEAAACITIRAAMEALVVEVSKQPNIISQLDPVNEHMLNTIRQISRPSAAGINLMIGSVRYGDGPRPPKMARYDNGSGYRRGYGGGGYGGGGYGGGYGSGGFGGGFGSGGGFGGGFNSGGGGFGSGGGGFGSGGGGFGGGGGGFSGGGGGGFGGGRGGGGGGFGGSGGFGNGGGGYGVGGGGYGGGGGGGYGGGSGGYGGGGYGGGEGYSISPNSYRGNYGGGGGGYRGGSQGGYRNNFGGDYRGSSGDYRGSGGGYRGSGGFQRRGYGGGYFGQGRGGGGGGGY
# UniProt P11103: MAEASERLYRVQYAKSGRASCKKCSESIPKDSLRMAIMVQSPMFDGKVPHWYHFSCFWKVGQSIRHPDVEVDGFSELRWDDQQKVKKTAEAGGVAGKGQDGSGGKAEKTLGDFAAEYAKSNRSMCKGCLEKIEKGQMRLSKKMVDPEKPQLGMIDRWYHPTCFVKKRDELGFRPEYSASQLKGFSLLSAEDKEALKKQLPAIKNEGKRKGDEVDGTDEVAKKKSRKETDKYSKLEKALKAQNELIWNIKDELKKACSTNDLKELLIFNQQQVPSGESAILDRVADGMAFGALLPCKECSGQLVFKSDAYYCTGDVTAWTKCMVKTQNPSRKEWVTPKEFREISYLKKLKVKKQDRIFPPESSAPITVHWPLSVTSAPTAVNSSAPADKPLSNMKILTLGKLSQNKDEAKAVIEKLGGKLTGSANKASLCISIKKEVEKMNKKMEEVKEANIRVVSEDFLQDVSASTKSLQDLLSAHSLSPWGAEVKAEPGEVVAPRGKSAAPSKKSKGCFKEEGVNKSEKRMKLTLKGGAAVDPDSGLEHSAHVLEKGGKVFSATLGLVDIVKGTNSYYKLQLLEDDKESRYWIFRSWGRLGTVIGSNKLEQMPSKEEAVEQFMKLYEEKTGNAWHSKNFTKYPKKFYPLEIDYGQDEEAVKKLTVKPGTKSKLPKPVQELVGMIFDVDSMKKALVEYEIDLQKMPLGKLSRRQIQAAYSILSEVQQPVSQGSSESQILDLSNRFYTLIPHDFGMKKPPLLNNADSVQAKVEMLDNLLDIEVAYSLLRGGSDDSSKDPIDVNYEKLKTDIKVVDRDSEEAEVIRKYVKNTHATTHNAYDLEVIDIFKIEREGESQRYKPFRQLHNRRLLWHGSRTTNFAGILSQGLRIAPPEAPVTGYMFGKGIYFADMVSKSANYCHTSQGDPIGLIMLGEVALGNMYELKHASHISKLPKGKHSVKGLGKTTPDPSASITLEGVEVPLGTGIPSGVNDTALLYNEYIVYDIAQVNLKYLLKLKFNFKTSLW
# No constants are given. Whether binding was seen depends on the method and setting. Binding seen in cells or lysates may run through a third protein. Some entries that bind do so weakly or less than the wild type. For some assays here: Where a sequence is shown, tags or fusion partners need not be part of it.
# Key:
# Test in all cases: co-IP; lysates of transiently transfected NIH-3T3 cells (untreated, Olaparib- or Camptothecin-treated; RNase A added to lysates in one experiment) immunoprecipitated with anti-HA antibody (anti-DIDO3 CT-specific antibody for ∆NT and SPCT), Protein A/G magnetic beads, Western blot for endogenous PARP1 and DHX9
# [1] = target: HA-tagged full-length DIDO3 (mouse) (UniProt Q8C9B9)
# HA-DIDO-NT (mouse) = target: T1, HA-DIDO-NT (mouse) (UniProt Q8C9B9)
# T1 sequence: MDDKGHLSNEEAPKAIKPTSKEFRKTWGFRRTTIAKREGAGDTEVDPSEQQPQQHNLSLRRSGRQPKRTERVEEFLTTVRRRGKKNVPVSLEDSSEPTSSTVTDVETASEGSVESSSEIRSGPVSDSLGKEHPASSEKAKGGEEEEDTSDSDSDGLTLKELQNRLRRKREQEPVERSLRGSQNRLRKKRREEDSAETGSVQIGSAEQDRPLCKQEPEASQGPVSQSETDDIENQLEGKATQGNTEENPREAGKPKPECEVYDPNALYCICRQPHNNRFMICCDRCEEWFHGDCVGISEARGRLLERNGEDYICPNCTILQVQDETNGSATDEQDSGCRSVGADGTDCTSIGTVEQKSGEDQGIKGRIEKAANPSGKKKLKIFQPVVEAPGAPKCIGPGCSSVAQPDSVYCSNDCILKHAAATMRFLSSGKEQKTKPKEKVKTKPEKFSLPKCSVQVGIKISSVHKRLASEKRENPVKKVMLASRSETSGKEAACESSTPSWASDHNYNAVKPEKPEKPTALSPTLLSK
# HA-DIDO-NTs (mouse) = target: T2, HA-DIDO-NTs (mouse) (UniProt Q8C9B9)
# T2 sequence: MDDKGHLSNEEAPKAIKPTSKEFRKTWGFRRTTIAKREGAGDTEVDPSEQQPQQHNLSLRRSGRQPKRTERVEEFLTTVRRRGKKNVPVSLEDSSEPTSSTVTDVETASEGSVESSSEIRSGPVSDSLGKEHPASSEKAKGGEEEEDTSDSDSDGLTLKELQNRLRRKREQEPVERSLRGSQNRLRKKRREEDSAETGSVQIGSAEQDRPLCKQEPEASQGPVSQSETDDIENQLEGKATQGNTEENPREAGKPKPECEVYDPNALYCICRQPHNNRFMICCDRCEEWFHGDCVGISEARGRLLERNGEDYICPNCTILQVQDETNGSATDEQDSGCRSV
# HA-DIDO2 (mouse) = target: T3, HA-DIDO2 (mouse) (UniProt Q8C9B9)
# T3 sequence: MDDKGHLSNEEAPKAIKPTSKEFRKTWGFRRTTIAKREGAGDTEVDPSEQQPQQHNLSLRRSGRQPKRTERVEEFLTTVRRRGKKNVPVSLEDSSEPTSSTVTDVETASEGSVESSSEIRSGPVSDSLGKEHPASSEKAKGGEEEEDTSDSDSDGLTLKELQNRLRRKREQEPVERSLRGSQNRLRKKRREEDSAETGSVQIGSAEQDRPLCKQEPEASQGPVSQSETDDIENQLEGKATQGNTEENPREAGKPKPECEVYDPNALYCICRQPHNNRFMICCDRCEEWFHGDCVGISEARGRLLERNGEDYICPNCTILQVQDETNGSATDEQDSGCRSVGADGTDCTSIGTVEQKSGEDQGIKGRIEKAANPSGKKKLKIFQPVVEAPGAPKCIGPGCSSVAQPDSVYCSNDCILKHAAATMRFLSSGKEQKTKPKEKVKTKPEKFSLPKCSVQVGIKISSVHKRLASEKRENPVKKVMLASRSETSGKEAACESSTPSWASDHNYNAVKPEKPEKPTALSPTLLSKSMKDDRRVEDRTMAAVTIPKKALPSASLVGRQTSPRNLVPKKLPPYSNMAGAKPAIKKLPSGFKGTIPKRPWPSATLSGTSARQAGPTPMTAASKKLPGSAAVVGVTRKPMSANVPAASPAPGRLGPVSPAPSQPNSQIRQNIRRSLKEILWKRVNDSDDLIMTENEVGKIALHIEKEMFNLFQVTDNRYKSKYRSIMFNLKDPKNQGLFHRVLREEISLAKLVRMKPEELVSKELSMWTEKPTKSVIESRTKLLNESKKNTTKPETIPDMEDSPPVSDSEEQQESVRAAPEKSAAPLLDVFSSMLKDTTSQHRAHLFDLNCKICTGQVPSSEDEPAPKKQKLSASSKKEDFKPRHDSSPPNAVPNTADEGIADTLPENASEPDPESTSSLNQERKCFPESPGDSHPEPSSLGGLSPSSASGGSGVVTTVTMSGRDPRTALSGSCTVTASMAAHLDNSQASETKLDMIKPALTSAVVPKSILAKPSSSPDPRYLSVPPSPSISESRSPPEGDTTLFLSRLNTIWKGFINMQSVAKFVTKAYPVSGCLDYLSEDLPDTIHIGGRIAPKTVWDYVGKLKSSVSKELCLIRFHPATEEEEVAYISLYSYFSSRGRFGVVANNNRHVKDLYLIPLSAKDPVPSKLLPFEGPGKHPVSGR
binding [1],binding (HA-DIDO-NT (mouse)),binding (HA-DIDO-NTs (mouse)),binding (HA-DIDO2 (mouse)),Substance
binds,–,–,–,DHX9 (from UniProt O70133 1-1380)
binds,binds,binds,binds,PARP1 (from UniProt P11103 1-1013)
